Test results published in PubChem BioAssay AID602441 (National Center for Advancing Translational Sciences (NCATS), 2012).
Out of some 1,300 compounds screened, fewer than 10 were called active. About 9% were inconclusive and are not listed. Calls follow the shape of the dose curve; as a rule, active = well fitted curve in the direction sought with a large enough effect; inconclusive = small, poorly fitted or top-dose-only effect, or another doubt; inactive = no such curve, though single readings can be large or run the other way. Some of the results follow.

assay: qHTS for antagonists of the Thyroid Stimulation Hormone Receptor: Hit Validation in Parental Cell Line; conditions: parental HEK293 cells lacking TSHR, counter-screen; series mostly up to 56.9 µM; activity change, negative = inhibition: at the top concentration; also: 0% is about no effect
How it was run: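 Counterscreen in untransfected parental HEK-EM 293 cells. Lysate cAMP displaces cAMP-d2 from cryptate-tagged anti-cAMP antibody, and homogeneous TR-FRET is read at 665 nm with 337 nm excitation after stimulation.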

SMILES | activity change, negative = inhibition
CCn1c(Cl)c(C=O)s/c1=N\S(=O)(=O)c1ccccc1 | inactive: -7.93%
NS(=O)(=O)c1ccc(CNC(=O)CCS(=O)(=O)Cc2ccccc2)cc1 | inactive: 4.5%
Cc1cc(C)c(-c2csc(NC(=O)/C=C/c3cccs3)n2)c(C)c1 | inactive: -0.163%
CC(=O)NC1=C(Nc2ccc(N(C)C)cc2)C(=O)c2ccccc2C1=O | inactive: -8.71%
NC(=O)NC[C@@H]1CC[C@@H](Cc2ccc(-c3ccccc3)cc2)O1 | inactive: 0.229%
O=C(O)c1ccc(Cl)cc1Nc1nc2cc(Cl)ccc2o1 | inactive: -3.11%
Clc1ccc2c(c1)-c1nnc(Br)n1-c1ccccc1S2 | inactive: 6.35%
CNS(=O)(=O)c1cccc(C(=O)OCC(=O)N2c3ccccc3NC(=O)C2(C)C)c1 | inactive: -0.504%
O=C(Nc1ccc(C(=O)NCc2ccccc2Cl)cc1)C1=CSCCO1 | inactive: 1.3%
CN(C)c1ccc(/C=C/c2cc[n+](C)cc2)cc1 | inactive: -7.72%
CN1/C(=C\C(=O)c2oc3ccccc3c2N)C(C)(C)c2ccccc21 | inactive: -10.2%
O=C(COC(=O)c1ccccc1NS(=O)(=O)c1cccs1)NCC12CC3CC(CC(C3)C1)C2 | inactive: 3.82%
C=CCN1C(=O)/C(=C/c2ccc(OC(C)=O)c(OCC)c2[N+](=O)[O-])SC1=S | inactive: -2.38%
CN(C)/C=C(/C(=O)c1ccc(Cl)cc1)S(=O)(=O)c1ccc(Cl)cc1 | inactive: 4.41%
COc1cc(NS(=O)(=O)c2ccc(NC(=O)c3ccc(F)cc3)cc2)ncn1 | inactive: 1.88%
Cc1cc(C)n2c(C)nnc2c1 | inactive: 6.7%
CC1CC1C(=O)N1CCN(S(=O)(=O)c2cc(C(F)(F)F)cc(C(F)(F)F)c2)CC1 (stereo unspecified) | inactive: 3.34%
CC(C)c1cc(=O)n2[nH]c(SCc3ccccc3)nc2n1 | inactive: -3.58%
COc1ccccc1C(=O)COC(=O)/C=C/c1ccccc1 | inactive: 3.14%
Cc1cccc(-c2noc(CN(C)C(=O)c3ccco3)n2)c1 | inactive: 0.764%
CN(C)C(=O)[C@H]1C[C@H]1[C@@H](O)[C@H](CO)NC(=O)[C@H](COCc1ccccc1)NC(=O)OC(C)(C)C | inactive: 4.47%
CCOc1ccccc1/C=C/c1onc(C)c1S(=O)(=O)N1CCC(C(=O)N2CCCCCC2)CC1 | inactive: 4.62%
CCn1c(=NC(=O)CSC(C)=O)sc2ccccc21 | inactive: 0.315%
Cc1cccc(NC(=O)C2CCN(S(=O)(=O)c3ccc4c(c3)NC(=O)CO4)CC2)c1 | inactive: -2.44%
N#Cc1cccc(NC(=O)COC(=O)c2cc(S(=O)(=O)Nc3ccccc3Cl)ccc2O)c1 | inactive: -6.09%
CC1=NN(C(N)=S)C(=O)C1N=Nc1c(Br)cc(Br)cc1Br (stereo unspecified) | inactive: -9.64%

SMILES | activity change, negative = inhibition
Cc1cc(C#N)c(SCC(N)=O)nc1-c1ccc(F)cc1 | inactive: 8.09%
CC(C)(C)C(=O)NC(=S)NNC(=O)c1ccc(-c2ccccc2)cc1 | inactive: -5.87%
COCC(C)n1c(COc2ccccc2F)nnc1SCc1c(C)noc1C (stereo unspecified) | inactive: 2.74%
N=c1oc2cc(O)ccc2cc1C(=O)Nc1ccc(Br)cc1 | inactive: -11.5%
Cc1csc(NC(=O)c2cc3c(s2)CCCC3)n1 | inactive: -0.817%
COc1cc(C(C)=O)ccc1OCC(=O)Nc1ccc(C)c(S(=O)(=O)N2CCCCCC2)c1 | inactive: -6.36%
CN(c1ccc(C(=O)NCCSCc2ccccc2)cc1)S(=O)(=O)c1ccccc1 | inactive: -8.58%
Brc1ccc(-c2nnc(-c3cccc(Br)c3)o2)cc1 | inactive: 5.65%
Cc1ccc(SC(CC(=O)c2ccc(C(C)(C)C)cc2)C(=O)O)cc1 (stereo unspecified) | inactive: -0.787%
O=c1nc(/C=C/c2ccccc2C(F)(F)F)cc(C(F)(F)F)[nH]1 | inactive: 1.4%
O=C(Nc1nc2ccc(F)cc2s1)C1CCN(S(=O)(=O)c2cc([N+](=O)[O-])ccc2Cl)CC1 | inactive: -2.66%
COc1ccccc1NS(=O)(=O)c1cc(NC(=O)c2ccc3c(c2)OCCO3)ccc1C | inactive: -1.4%
CC(=O)NC12CC3CC(C1)CC(C(=O)OCC(=O)c1ccc4c(c1)OCCO4)(C3)C2 | inactive: 3.23%
CC1CC(C)CN(CCCNC(=O)CN2C(=O)COc3ccc(S(=O)(=O)N4CCOCC4)cc32)C1 (stereo unspecified) | inactive: 4.98%
Cc1ccc(Nc2nc(N3CCOCC3)nc(N3CCOCC3)n2)cc1Cl | inactive: -1.63%
Cc1ccc(S(=O)(=O)N2CCN(C(=O)Cc3ccsc3)CC2)c(C)c1 | inactive: 3.15%
CC(C)Nc1nc(SC(C)C(=O)Nc2ccccc2)nc(N(C)C)n1 (stereo unspecified) | inactive: 1.47%
CC1CCCC(NC(=O)CN2C(=O)COc3ccccc32)C1C (stereo unspecified) | inactive: 0.576%
Cc1ccccc1N1CCN(C2CCCN(C(=O)c3cnsn3)C2)CC1 (stereo unspecified) | inactive: -0.898%
CCCCOc1ccc(/C=N/Nc2cc(N3CCOCC3)nc(C)n2)cc1 | inactive: -18.4%
Cc1ccc(S(=O)(=O)c2c(C(=O)c3ccccc3)cnc3cc4c(cc23)OCCO4)cc1 | inactive: 4.46%
O=C(CNc1ccc(C(F)(F)F)cc1)Nc1cccc(S(=O)(=O)N2CCCC2)c1 | inactive: 0.458%
CCOC(=O)c1sc(NC(=O)c2cc(-c3ccccc3)nc3ccccc23)c(C#N)c1C | inactive: -3%
O=C(O)c1nn(CC(=O)N2CCN(c3ncc(C(F)(F)F)cc3Cl)CC2)c(=O)c2ccccc12 | inactive: -0.862%
COC(=O)CSc1nc(-c2ccccc2)cc(-c2ccco2)c1C#N | inactive: -1.63%
O=C(c1ccco1)N1CCN(c2ncnc3c2nnn3Cc2ccccc2Cl)CC1 | inactive: -8.18%

SMILES | activity change, negative = inhibition
Cc1nn(-c2ccccc2)c(C)c1NC(=O)COc1ccc(Br)cc1Cl | inactive: 2.09%
CC(=O)N1c2ccc(S(=O)(=O)NCCC(=O)Nc3ccccc3C)cc2CC1C (stereo unspecified) | inactive: 5.94%
CC1(C)CC2(CCCN3C(=O)CSC32)CCS1 (stereo unspecified) | inactive: 4.66%
O=C(Nc1cccc2ccccc12)c1ccccc1 | inactive: 3.19%
COc1ccc(C(=O)NC2CCCc3c2cnn3-c2cccc(C)c2C)c(OC)n1 (stereo unspecified) | inactive: -0.938%
Cc1ccc(NC(=O)c2nc(S(=O)(=O)Cc3ccccc3C)ncc2Cl)cc1C | inactive: 3.07%
Cc1ccccc1NC(=O)C1C2CCCCC21 (stereo unspecified) | inactive: 4.92%
O=C(OCc1cc(Cl)ccc1OC(F)F)c1cncc(Br)c1 | inactive: -3.16%
COc1ccc(Cc2nc(-c3ccc(-n4cccc4)cc3)no2)cc1OC | inactive: 2.07%
O=C(Nc1ccc(Cl)c(Cl)c1)Nc1ccccc1O | inactive: -4.98%
COc1ccc(C(=O)N2CCN(c3ccc([N+](=O)[O-])c(NCCc4ccc(OC)c(OC)c4)c3)CC2)cc1 | inactive: -1.33%
Cc1cccc(N2CCN(S(=O)(=O)c3ccc4c(c3)NC(=O)CS4)CC2)c1C | inactive: -0.143%
CC(=O)C1=C(O)C(=O)N(c2ccc(O)cc2)C1c1cccc(F)c1 (stereo unspecified) | inactive: 6.42%
COc1ccc(NS(=O)(=O)c2cccc(NC(=O)c3ccc(S(=O)(=O)N4CCCCCC4)cc3)c2)cc1 | inactive: 0.652%
Cc1ccc(C)c(N2CCN(C(=O)C(Cc3ccccc3)n3cccc3)CC2)c1 (stereo unspecified) | inactive: -0.353%
CC(C)C(=O)Nc1c(-c2ccc(Cl)cc2)c(=O)c2ccccc2n1C | inactive: 2.82%
Cc1c(C=O)c2ccccc2n1CCOc1ccccc1 | inactive: 0.0197%
O=c1cc(C(F)(F)F)[nH]c2c(C(F)(F)F)cccc12 | inactive: 1.05%
Cc1ccc(S(=O)(=O)/N=C2/NC(=O)/C(=C\c3cc(Br)cc(Br)c3O)S2)cc1 | inactive: 3.98%
O=C(NC1CCOc2ccccc21)c1ccccn1 (stereo unspecified) | inactive: 4%
COC(=O)CSc1nc(NCc2ccccc2)nc(N(C)C)n1 | inactive: -0.113%
O=C(NCc1ccc2c(c1)OCO2)C12CN(Cc3ccccc3)CC1C(c1cccc([N+](=O)[O-])c1)=NO2 (stereo unspecified) | inactive: 4.74%
O=C(CSc1ccccn1)Nc1cccc2ccccc12 | inactive: 4.24%
Cc1cc(C)cc(OC(C)C(=O)NCCCn2ccnc2)c1 (stereo unspecified) | inactive: 5.36%
COC(=O)CCN(Cc1cc(OC)ccc1OC)S(=O)(=O)c1ccccc1Br | inactive: 0.609%
C/C(=N\NC(=O)c1nnn(-c2nonc2N)c1-c1ccc(Cl)c(Cl)c1)c1ccncc1 | inactive: -4.56%

SMILES | activity change, negative = inhibition
CCn1nc(C)c(NC(=O)/C=C/c2ccc(OC)c(COc3ccc(Br)cc3)c2)c1C | inactive: -1.82%
Cc1ccc(-c2cc(C(=O)Nc3ccncc3)c3ccccc3n2)cc1 | inactive: -1.46%
O=S(=O)(c1ccc(SCc2ccc(Cl)cc2)nc1)N1CCCC1 | inactive: 6.26%
Cc1ccc(NS(=O)(=O)c2cc(C(=O)Nc3cccc([N+](=O)[O-])c3)ccc2C)cc1 | inactive: -5.13%
Cc1ccc(-c2cn3cc(C)ccc3n2)cc1 | inactive: 2.4%
COc1ccc(NS(=O)(=O)c2ccc3c(c2)Cc2ccccc2-3)cn1 | inactive: -0.188%
NC(=O)CSc1oc(-c2ccco2)nc1S(=O)(=O)c1ccccc1 | inactive: 1.42%
CC1S/C(=N\N=C\c2cccc([N+](=O)[O-])c2)N(C(C)(C)C)C1=O (stereo unspecified) | inactive: -1.55%
CCN(CC)S(=O)(=O)c1cccc(C(=O)/C=C2/N(C)c3ccccc3C2(C)C)c1 | inactive: -8.84%
COc1ccc(/C=C/C(=O)N2CCN(C)CC2)cc1OC | inactive: 4.72%
COc1cc2ccccc2cc1C(=O)N1CCCC1 | inactive: 2.38%
CCOC(=O)C1=C(C)Nc2ccccc2N=C1NC(=O)c1cc(C)on1 | inactive: 3.54%
COC(=O)[C@H]1[C@H]2C[C@@H]3c4[nH]c5cc(OC)ccc5c4CCN3C[C@H]2C[C@@H](OC(=O)/C=C/c2cc(OC)c(OC)c(OC)c2)[C@@H]1OC | inactive: -3.39%
COc1ccccc1CNc1ncnc2sccc12 | inactive: 1.11%
COc1ccc(OC)c(NC(=O)CSc2ncnc3c2cnn3-c2ccccc2Cl)c1 | inactive: 5.57%
CN(C)S(=O)(=O)N1CCN(c2ccnc3cc(Cl)ccc23)CC1 | inactive: 0.353%
COc1cccc(-c2nc(CS(=O)(=O)CC(=O)NC3CCCCCC3)c(C)o2)c1 | inactive: -0.472%
CC(=O)c1ccc(N(C(=O)CNC(=O)c2ccco2)C(C(=O)NC2CCCC2)c2ccncc2)cc1 (stereo unspecified) | inactive: 4.76%
Cc1ccc(C2(c3ccc(C)cc3)CC2C(=O)Nc2ccc([N+](=O)[O-])cc2O)cc1 (stereo unspecified) | inactive: -4.43%
CC1=C(C(=O)OCC(Cl)(Cl)Cl)N2C(=O)C(NC(=O)Cc3ccccc3)C2SC1 (stereo unspecified) | inactive: 1.45%
COc1ccc(-c2csc(NC(=O)c3ccccc3NS(=O)(=O)c3ccc(C)cc3)n2)cc1 | inactive: -5.21%
CCOC(=O)Cc1csc(NC(=O)COc2ccc(N(C)S(=O)(=O)c3cccs3)cc2)n1 | inactive: -7.57%
O=C(NCCC1=CCCCC1)C(=O)NCC1OCCCN1S(=O)(=O)c1cc(F)ccc1F (stereo unspecified) | inactive: 2.13%

6 entries from above, as a markdown table.

| SMILES | activity change, negative = inhibition |
| --- | --- |
| CC(=O)c1ccc(N(C(=O)CNC(=O)c2ccco2)C(C(=O)NC2CCCC2)c2ccncc2)cc1 (stereo unspecified) | inactive: 4.76% |
| Cc1ccc(C2(c3ccc(C)cc3)CC2C(=O)Nc2ccc([N+](=O)[O-])cc2O)cc1 (stereo unspecified) | inactive: -4.43% |
| CC1=C(C(=O)OCC(Cl)(Cl)Cl)N2C(=O)C(NC(=O)Cc3ccccc3)C2SC1 (stereo unspecified) | inactive: 1.45% |
| COc1ccc(-c2csc(NC(=O)c3ccccc3NS(=O)(=O)c3ccc(C)cc3)n2)cc1 | inactive: -5.21% |
| CCOC(=O)Cc1csc(NC(=O)COc2ccc(N(C)S(=O)(=O)c3cccs3)cc2)n1 | inactive: -7.57% |
| O=C(NCCC1=CCCCC1)C(=O)NCC1OCCCN1S(=O)(=O)c1cc(F)ccc1F (stereo unspecified) | inactive: 2.13% |
